# Results deposited as PubChem BioAssay AID493246 (Drosophila RNAi Screening Center, 2011)
# Purpose: 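Genome-wide search for dsRNAs that reduce cell number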 (primary screen)
# Cell system: Drosophila Kc and S2R+ cells
# Reagent: long dsRNA against Drosophila genes
# Detection: 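Cell number per well after knock-down, printed as raw plate values; calls were based on per-plate z-scores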
# Direction: Kc cell number and S2R+ cell number: higher = more cells remaining
# Hit rule: 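Active when the per-plate z-score of cell number is 3 or more in the direction of fewer cells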
# In all, the deposit lists about 21,000 reagents; shown is an unselected part of those with a known target gene and a result. Of all reagents, 429 (2%) were called active. 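Values are raw and not normalised between plates; calls rest on per-plate z-scores that were not deposited.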 A plus sign joins genes that one reagent is predicted to hit. Not stated in the record: the amount of reagent, the time to read-out.
gene,DRSC id,"Kc cell number, rep 1","Kc cell number, rep 2","S2R+ cell number, rep 1","S2R+ cell number, rep 2",outcome
Alp13,DRSC15781,1.63e6,1.53e6,1.24e6,1.36e6,inactive
CG33278,DRSC10336,1.69e6,1.65e6,1.20e6,1.18e6,inactive
CecA1,DRSC16603,1.46e6,1.50e6,1.02e6,1.16e6,inactive
Appl,DRSC17728,5.56e5,,7.90e5,,inactive
Klp10A,DRSC19601,5.30e5,,7.57e5,,inactive
CG30026,DRSC05276,1.50e6,1.45e6,1.05e6,1.15e6,inactive
uzip,DRSC04722,1.41e6,1.47e6,1.07e6,1.08e6,inactive
CG9040,DRSC11053,1.59e6,1.46e6,1.14e6,1.30e6,inactive
Rpn12,DRSC11275,9.36e5,9.49e5,7.10e5,8.24e5,active
Sgs7,DRSC11281,1.60e6,1.36e6,1.42e6,1.54e6,inactive
CR31824,DRSC01517,1.55e6,1.53e6,9.26e5,1.17e6,inactive
CG43996,DRSC19456,1.53e6,1.55e6,1.05e6,1.18e6,inactive
CG43996,DRSC19457,1.46e6,1.49e6,1.11e6,1.21e6,inactive
Syx6,DRSC07032,1.35e6,1.41e6,1.14e6,1.16e6,inactive
Dpy-30L2,DRSC08205,1.19e6,1.36e6,1.08e6,1.21e6,inactive
Es2,DRSC18663,5.72e5,,9.05e5,,inactive
ss,DRSC17069,1.23e6,1.29e6,1.20e6,1.38e6,inactive
GlyT,DRSC04512,1.63e6,1.79e6,1.24e6,1.42e6,inactive
MAPk-Ak2,DRSC18678,1.66e6,1.61e6,1.14e6,1.20e6,inactive
CG8281,DRSC10976,1.44e6,1.57e6,1.25e6,1.30e6,inactive
CG5882,DRSC15907,1.52e6,1.51e6,9.55e5,1.04e6,inactive
CG4679,DRSC06880,1.53e6,1.53e6,1.10e6,1.24e6,inactive
CG12546 + CG14452,DRSC11709,1.59e6,1.59e6,1.15e6,1.31e6,inactive
Septin2,DRSC16855,1.84e6,1.85e6,1.34e6,1.42e6,inactive
CG15580,DRSC12266,1.65e6,1.81e6,1.29e6,1.32e6,inactive
CG42246,DRSC17520,1.16e6,1.41e6,1.04e6,1.10e6,inactive
CG3748,DRSC02716,1.68e6,1.86e6,1.34e6,1.54e6,inactive
CG4281,DRSC18521,4.97e5,,7.55e5,,inactive
CG9444,DRSC16493,1.34e6,1.48e6,1.34e6,1.47e6,inactive

Continued; the last 3 above are carried over.
gene,DRSC id,"Kc cell number, rep 1","Kc cell number, rep 2","S2R+ cell number, rep 1","S2R+ cell number, rep 2",outcome
CG3748,DRSC02716,1.68e6,1.86e6,1.34e6,1.54e6,inactive
CG4281,DRSC18521,4.97e5,,7.55e5,,inactive
CG9444,DRSC16493,1.34e6,1.48e6,1.34e6,1.47e6,inactive
CG4324,DRSC04462,1.44e6,1.50e6,1.20e6,1.34e6,inactive
Dscam1,DRSC05047,1.43e6,1.49e6,9.52e5,1.05e6,inactive
Dscam1,DRSC05048,1.43e6,1.49e6,1.02e6,1.06e6,inactive
Dscam1,DRSC07407,1.49e6,1.58e6,1.24e6,1.31e6,inactive
GstT1,DRSC06243,1.70e6,1.76e6,1.32e6,1.47e6,inactive
Cpr65Ax2 + Cpr65Ax1,DRSC10341,1.50e6,1.31e6,1.10e6,1.20e6,inactive
Cpr65Ax2 + Cpr65Ax1,DRSC10344,1.46e6,1.33e6,1.15e6,1.19e6,inactive
Fas3,DRSC01638,1.49e6,1.58e6,9.94e5,1.24e6,inactive
Fas3,DRSC03326,1.67e6,1.58e6,1.25e6,1.48e6,inactive
CG3982,DRSC10394,1.16e6,1.34e6,6.84e5,8.70e5,active
CAH3,DRSC17776,1.53e6,1.52e6,1.19e6,1.28e6,inactive
Mitf,DRSC17212,1.47e6,1.51e6,1.07e6,1.16e6,inactive
Mitf,DRSC21056,1.52e6,1.56e6,1.03e6,1.15e6,inactive
polo,DRSC11384,1.37e6,1.52e6,1.04e6,1.17e6,inactive
Mettl3,DRSC15921,1.51e6,1.49e6,9.50e5,1.07e6,inactive
Epac,DRSC04996,1.43e6,1.55e6,1.01e6,1.05e6,inactive
Epac,DRSC04997,1.48e6,1.64e6,1.34e6,1.56e6,inactive
CG14676,DRSC12262,1.50e6,1.76e6,1.23e6,1.35e6,inactive
ALiX,DRSC14564,5.13e5,,8.03e5,,inactive
NAT1,DRSC06854,1.50e6,1.53e6,1.14e6,1.24e6,inactive
CG13690,DRSC00359,1.74e6,1.73e6,1.15e6,1.23e6,inactive
Efhc1.2,DRSC06027,1.35e6,1.41e6,1.19e6,1.19e6,inactive
CG15561,DRSC15100,1.77e6,1.80e6,1.13e6,1.28e6,inactive
Mgtor,DRSC05958,1.24e6,1.35e6,1.01e6,9.50e5,inactive
CG5910,DRSC11786,1.71e6,1.79e6,1.39e6,1.45e6,inactive
CG31272,DRSC16058,1.61e6,1.82e6,1.20e6,1.31e6,inactive
Parg,DRSC18696,5.75e5,,8.69e5,,inactive
IRSp53,DRSC10891,1.37e6,1.31e6,1.11e6,1.25e6,inactive
CG4691,DRSC01950,1.31e6,1.37e6,1.41e6,1.28e6,inactive
CG15465,DRSC18048,1.57e6,1.60e6,1.14e6,1.29e6,inactive
